The text below walks through data of paper PMC6555833, “APC/C^CDH1 synchronizes ribose-5-phosphate levels and DNA synthesis to cell cycle progression” (Nature Communications, 2019).

One assay addresses T1, SBP-Flag-TKT (human) (UniProt P29401).
T1 sequence: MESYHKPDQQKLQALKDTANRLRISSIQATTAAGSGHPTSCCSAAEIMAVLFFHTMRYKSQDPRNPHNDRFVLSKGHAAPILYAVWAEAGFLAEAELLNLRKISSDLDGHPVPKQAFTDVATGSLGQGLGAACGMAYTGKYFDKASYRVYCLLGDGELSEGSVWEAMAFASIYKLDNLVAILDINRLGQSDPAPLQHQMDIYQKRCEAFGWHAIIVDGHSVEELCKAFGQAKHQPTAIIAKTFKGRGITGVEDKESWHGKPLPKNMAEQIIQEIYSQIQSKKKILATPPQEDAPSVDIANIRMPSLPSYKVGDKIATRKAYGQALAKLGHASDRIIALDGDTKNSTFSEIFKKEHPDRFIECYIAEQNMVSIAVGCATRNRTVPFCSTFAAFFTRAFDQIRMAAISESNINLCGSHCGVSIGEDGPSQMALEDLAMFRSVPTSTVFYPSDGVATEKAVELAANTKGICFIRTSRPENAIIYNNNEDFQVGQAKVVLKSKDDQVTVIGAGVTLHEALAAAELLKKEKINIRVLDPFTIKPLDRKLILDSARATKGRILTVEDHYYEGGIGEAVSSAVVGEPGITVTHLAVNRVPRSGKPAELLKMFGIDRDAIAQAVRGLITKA
Nature of the assay: affinity purification with mass spectrometry; tandem affinity purification; 293T cells stably expressing SBP-Flag bait; 0.1% NP40 buffer; SBP beads 3 h at 4 °C; on-bead tryptic digestion.

The target in another assay is T2, SBP-Flag-TKTL1 (human) (UniProt P51854).
T2 sequence: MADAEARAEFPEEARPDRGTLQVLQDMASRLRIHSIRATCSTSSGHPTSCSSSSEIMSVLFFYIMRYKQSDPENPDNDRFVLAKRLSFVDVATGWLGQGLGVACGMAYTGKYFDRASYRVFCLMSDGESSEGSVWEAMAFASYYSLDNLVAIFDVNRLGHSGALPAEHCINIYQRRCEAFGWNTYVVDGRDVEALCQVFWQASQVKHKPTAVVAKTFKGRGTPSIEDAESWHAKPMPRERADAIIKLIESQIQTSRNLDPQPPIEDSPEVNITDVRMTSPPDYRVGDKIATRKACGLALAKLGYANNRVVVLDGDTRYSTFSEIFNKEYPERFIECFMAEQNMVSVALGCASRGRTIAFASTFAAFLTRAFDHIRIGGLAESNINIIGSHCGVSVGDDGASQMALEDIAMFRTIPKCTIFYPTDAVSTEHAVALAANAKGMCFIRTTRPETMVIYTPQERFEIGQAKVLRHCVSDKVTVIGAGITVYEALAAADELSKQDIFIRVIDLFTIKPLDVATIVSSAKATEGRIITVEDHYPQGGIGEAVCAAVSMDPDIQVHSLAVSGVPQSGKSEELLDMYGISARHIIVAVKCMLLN
Described as above.

These are yes or no findings as the source states them, for the method shown. Binding seen in cells or lysates may run through a third protein. Here binding means that the protein was enriched with, or labelled near, the bait; the list need not be complete. Where a sequence is shown, tags or fusion partners need not be part of it.

B1: purified recombinant TKTL1 (natural protein, human, UniProt P51854 1-596, looked up)
chain: MADAEARAEFPEEARPDRGTLQVLQDMASRLRIHSIRATCSTSSGHPTSCSSSSEIMSVLFFYIMRYKQSDPENPDNDRFVLAKRLSFVDVATGWLGQGLGVACGMAYTGKYFDRASYRVFCLMSDGESSEGSVWEAMAFASYYSLDNLVAIFDVNRLGHSGALPAEHCINIYQRRCEAFGWNTYVVDGRDVEALCQVFWQASQVKHKPTAVVAKTFKGRGTPSIEDAESWHAKPMPRERADAIIKLIESQIQTSRNLDPQPPIEDSPEVNITDVRMTSPPDYRVGDKIATRKACGLALAKLGYANNRVVVLDGDTRYSTFSEIFNKEYPERFIECFMAEQNMVSVALGCASRGRTIAFASTFAAFLTRAFDHIRIGGLAESNINIIGSHCGVSVGDDGASQMALEDIAMFRTIPKCTIFYPTDAVSTEHAVALAANAKGMCFIRTTRPETMVIYTPQERFEIGQAKVLRHCVSDKVTVIGAGITVYEALAAADELSKQDIFIRVIDLFTIKPLDVATIVSSAKATEGRIITVEDHYPQGGIGEAVCAAVSMDPDIQVHSLAVSGVPQSGKSEELLDMYGISARHIIVAVKCMLLN
notes: wild-type transketolase-like protein 1 (TKTL1), human; in vector pSJ3; also called TKTL1 monomer; source: E. coli BL21 (DE3)pLysS, purified (nickel column)
Take B1: in the assay with SBP-Flag-TKT (human), the binding entry is “binds”.

B2: purified recombinant TKT (natural protein, human, UniProt P29401 1-623, looked up)
chain: MESYHKPDQQKLQALKDTANRLRISSIQATTAAGSGHPTSCCSAAEIMAVLFFHTMRYKSQDPRNPHNDRFVLSKGHAAPILYAVWAEAGFLAEAELLNLRKISSDLDGHPVPKQAFTDVATGSLGQGLGAACGMAYTGKYFDKASYRVYCLLGDGELSEGSVWEAMAFASIYKLDNLVAILDINRLGQSDPAPLQHQMDIYQKRCEAFGWHAIIVDGHSVEELCKAFGQAKHQPTAIIAKTFKGRGITGVEDKESWHGKPLPKNMAEQIIQEIYSQIQSKKKILATPPQEDAPSVDIANIRMPSLPSYKVGDKIATRKAYGQALAKLGHASDRIIALDGDTKNSTFSEIFKKEHPDRFIECYIAEQNMVSIAVGCATRNRTVPFCSTFAAFFTRAFDQIRMAAISESNINLCGSHCGVSIGEDGPSQMALEDLAMFRSVPTSTVFYPSDGVATEKAVELAANTKGICFIRTSRPENAIIYNNNEDFQVGQAKVVLKSKDDQVTVIGAGVTLHEALAAAELLKKEKINIRVLDPFTIKPLDRKLILDSARATKGRILTVEDHYYEGGIGEAVSSAVVGEPGITVTHLAVNRVPRSGKPAELLKMFGIDRDAIAQAVRGLITKA
notes: wild-type transketolase (TKT), human; in vector pSJ3; also called TKT homodimer; TKT-TKT; source: E. coli BL21 (DE3)pLysS, purified (nickel column)
For B2, in the assay with SBP-Flag-TKTL1 (human), the binding entry was “binds”.
